Among the data in article doi:10.1101/2023.04.28.23289152 are binding values, retold here.

The chains behind the UniProt entries cited, without tags or fusion partners.
UniProt P84077: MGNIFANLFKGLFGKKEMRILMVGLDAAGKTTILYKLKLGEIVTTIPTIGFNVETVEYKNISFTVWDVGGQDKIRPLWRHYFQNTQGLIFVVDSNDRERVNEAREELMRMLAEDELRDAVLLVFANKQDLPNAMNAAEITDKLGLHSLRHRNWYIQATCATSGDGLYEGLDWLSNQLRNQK
UniProt P53618: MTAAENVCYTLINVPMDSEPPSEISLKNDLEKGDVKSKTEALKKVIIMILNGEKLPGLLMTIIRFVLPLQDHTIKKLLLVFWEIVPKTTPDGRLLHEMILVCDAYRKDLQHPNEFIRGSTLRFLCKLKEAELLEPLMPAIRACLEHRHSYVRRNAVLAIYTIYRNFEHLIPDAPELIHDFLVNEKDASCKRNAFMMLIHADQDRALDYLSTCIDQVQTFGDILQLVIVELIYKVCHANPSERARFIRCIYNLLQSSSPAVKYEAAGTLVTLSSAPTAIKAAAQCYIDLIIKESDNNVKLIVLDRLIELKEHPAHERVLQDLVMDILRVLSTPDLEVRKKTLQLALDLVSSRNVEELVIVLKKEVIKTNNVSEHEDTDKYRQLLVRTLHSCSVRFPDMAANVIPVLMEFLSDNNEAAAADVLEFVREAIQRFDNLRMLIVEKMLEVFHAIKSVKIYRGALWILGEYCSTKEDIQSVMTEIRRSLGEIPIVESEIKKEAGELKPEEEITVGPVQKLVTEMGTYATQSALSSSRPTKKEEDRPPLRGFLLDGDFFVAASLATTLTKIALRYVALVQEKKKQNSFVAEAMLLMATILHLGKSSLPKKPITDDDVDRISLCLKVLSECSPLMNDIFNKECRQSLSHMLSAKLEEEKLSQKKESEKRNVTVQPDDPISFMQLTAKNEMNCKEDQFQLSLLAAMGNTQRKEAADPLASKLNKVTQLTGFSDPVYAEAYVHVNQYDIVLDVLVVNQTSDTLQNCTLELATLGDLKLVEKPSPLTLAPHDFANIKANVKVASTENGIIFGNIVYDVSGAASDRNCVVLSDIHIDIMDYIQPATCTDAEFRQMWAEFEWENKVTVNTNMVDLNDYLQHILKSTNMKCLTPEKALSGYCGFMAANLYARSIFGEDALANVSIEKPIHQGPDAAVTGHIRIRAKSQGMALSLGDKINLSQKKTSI
UniProt Q9Y678: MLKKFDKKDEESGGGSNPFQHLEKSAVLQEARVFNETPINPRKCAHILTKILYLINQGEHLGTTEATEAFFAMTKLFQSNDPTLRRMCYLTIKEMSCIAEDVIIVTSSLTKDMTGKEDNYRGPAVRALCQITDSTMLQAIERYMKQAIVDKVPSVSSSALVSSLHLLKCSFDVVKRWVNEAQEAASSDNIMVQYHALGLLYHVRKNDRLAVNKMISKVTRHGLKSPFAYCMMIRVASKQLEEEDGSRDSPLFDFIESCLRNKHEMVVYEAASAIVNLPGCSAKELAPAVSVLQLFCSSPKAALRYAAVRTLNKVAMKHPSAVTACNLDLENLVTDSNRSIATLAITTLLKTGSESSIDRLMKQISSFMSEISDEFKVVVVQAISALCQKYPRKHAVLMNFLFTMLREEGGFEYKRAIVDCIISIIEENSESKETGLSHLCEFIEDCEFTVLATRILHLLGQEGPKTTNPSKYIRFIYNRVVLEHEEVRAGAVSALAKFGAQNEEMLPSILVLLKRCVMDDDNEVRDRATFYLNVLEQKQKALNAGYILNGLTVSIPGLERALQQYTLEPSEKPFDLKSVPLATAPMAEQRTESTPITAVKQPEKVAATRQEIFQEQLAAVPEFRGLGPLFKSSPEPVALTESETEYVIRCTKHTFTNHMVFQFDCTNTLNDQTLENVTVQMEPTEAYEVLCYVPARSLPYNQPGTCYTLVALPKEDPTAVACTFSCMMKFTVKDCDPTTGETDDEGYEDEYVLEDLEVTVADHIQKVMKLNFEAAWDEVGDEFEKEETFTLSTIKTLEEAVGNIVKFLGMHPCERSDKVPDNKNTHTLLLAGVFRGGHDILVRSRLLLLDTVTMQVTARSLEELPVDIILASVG
UniProt Q99627: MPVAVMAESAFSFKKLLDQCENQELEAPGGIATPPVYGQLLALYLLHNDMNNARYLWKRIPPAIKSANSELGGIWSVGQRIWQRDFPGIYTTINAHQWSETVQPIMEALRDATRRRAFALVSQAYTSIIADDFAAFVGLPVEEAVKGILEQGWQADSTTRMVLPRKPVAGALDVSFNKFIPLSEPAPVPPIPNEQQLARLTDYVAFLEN
UniProt P53621: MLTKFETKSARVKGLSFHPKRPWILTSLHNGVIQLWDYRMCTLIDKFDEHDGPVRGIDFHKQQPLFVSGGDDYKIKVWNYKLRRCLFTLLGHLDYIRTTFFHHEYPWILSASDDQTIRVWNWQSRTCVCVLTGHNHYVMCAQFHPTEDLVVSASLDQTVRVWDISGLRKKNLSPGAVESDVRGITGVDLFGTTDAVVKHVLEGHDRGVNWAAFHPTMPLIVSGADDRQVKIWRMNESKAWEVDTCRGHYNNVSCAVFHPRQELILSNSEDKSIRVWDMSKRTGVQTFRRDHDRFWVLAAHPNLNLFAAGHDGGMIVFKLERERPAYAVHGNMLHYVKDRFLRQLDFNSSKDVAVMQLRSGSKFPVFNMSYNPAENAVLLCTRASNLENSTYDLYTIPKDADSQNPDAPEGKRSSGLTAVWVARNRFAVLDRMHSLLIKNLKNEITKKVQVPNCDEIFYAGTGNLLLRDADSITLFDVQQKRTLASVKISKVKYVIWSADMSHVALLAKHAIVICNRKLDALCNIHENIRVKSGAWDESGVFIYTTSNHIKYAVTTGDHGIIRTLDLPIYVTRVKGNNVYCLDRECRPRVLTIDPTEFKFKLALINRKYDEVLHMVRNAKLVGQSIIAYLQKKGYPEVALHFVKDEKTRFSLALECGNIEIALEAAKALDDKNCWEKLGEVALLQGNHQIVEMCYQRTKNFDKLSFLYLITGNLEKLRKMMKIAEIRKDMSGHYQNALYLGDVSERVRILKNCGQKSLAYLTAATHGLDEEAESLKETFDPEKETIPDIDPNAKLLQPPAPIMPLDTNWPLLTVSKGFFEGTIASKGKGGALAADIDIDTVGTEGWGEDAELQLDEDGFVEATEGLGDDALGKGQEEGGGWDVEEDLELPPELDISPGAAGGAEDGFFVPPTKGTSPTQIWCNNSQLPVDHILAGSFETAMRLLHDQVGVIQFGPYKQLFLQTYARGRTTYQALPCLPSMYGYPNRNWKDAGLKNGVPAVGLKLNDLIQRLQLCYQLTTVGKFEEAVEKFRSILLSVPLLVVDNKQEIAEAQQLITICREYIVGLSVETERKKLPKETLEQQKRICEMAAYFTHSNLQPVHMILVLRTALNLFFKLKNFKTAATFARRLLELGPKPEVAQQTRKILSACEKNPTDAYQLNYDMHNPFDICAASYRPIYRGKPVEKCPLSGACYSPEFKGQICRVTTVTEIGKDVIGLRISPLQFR

The experiment concerns the target ARF1 WT (pCMV6-hARF1-myc-FLAG) (human) (UniProt P84077). Description: affinity purification with mass spectrometry.

Results are given in words; binding and its absence hold for the method and conditions named. In cells and extracts the contact can be indirect. A yes stands for co-enrichment or nearness to the bait. Other partners may have been found.

As to COPB1 (from UniProt P53618 1-953), the binding entry was “binds”.

Consider COPG1 (from UniProt Q9Y678 1-874), for which the binding entry was “binds”.

In the case of COPS8 (from UniProt Q99627 1-209), the binding result was “binds”.

For the molecule “coatomer protein subunit alpha (COPA) (from UniProt P53621 1-1224)”, the binding result is “binds”.

B1: COPD/ARCN1 (protein, UniProt P48444 1-511)
chain: MVLLAAAVCTKAGKAIVSRQFVEMTRTRIEGLLAAFPKLMNTGKQHTFVETESVRYVYQPMEKLYMVLITTKNSNILEDLETLRLFSRVIPEYCRALEENEISEHCFDLIFAFDEIVALGYRENVNLAQIRTFTEMDSHEEKVFRAVRETQEREAKAEMRRKAKELQQARRDAERQGKKAPGFGGFGSSAVSGGSTAAMITETIIETDKPKVAPAPARPSGPSKALKLGAKGKEVDNFVDKLKSEGETIMSSSMGKRTSEATKMHAPPINMESVHMKIEEKITLTCGRDGGLQNMELHGMIMLRISDDKYGRIRLHVENEDKKGVQLQTHPNVDKKLFTAESLIGLKNPEKSFPVNSDVGVLKWRLQTTEESFIPLTINCWPSESGNGCDVNIEYELQEDNLELNDVVITIPLPSGVGAPVIGEIDGEYRHDSRRNTLEWCLPVIDAKNKSGSLEFSIAGQPNDFFPVQVSFVSKKNYCNIQVTKVTQVDGNSPVRFSTETTFLVDKYEIL
With B1, the binding entry is recorded as “binds”.

B2: COPB2 (protein, UniProt P35606 1-906)
chain: MPLRLDIKRKLTARSDRVKSVDLHPTEPWMLASLYNGSVCVWNHETQTLVKTFEVCDLPVRAAKFVARKNWVVTGADDMQIRVFNYNTLERVHMFEAHSDYIRCIAVHPTQPFILTSSDDMLIKLWDWDKKWSCSQVFEGHTHYVMQIVINPKDNNQFASASLDRTIKVWQLGSSSPNFTLEGHEKGVNCIDYYSGGDKPYLISGADDRLVKIWDYQNKTCVQTLEGHAQNVSCASFHPELPIIITGSEDGTVRIWHSSTYRLESTLNYGMERVWCVASLRGSNNVALGYDEGSIIVKLGREEPAMSMDANGKIIWAKHSEVQQANLKAMGDAEIKDGERLPLAVKDMGSCEIYPQTIQHNPNGRFVVVCGDGEYIIYTAMALRNKSFGSAQEFAWAHDSSEYAIRESNSIVKIFKNFKEKKSFKPDFGAESIYGGFLLGVRSVNGLAFYDWDNTELIRRIEIQPKHIFWSDSGELVCIATEESFFILKYLSEKVLAAQETHEGVTEDGIEDAFEVLGEIQEIVKTGLWVGDCFIYTSSVNRLNYYVGGEIVTIAHLDRTMYLLGYIPKDNRLYLGDKELNIISYSLLVSVLEYQTAVMRRDFSMADKVLPTIPKEQRTRVAHFLEKQGFKQQALTVSTDPEHRFELALQLGELKIAYQLAVEAESEQKWKQLAELAISKCQFGLAQECLHHAQDYGGLLLLATASGNANMVNKLAEGAERDGKNNVAFMSYFLQGKVDACLELLIRTGRLPEAAFLARTYLPSQVSRVVKLWRENLSKVNQKAAESLADPTEYENLFPGLKEAFVVEEWVKETHADLWPAKQYPLVTPNEERNVMEEGKDFQPSRSTAQQELDGKPASPTPVIVASHTANKEEKSLLELEVDLDNLELEDIDTTDINLDEDILDD
As for B2, the binding entry is “binds”.

B3: COPG2 (protein, UniProt Q9UBF2 1-871)
chain: MIKKFDKKDEESGSGSNPFQHLEKSAVLQEARIFNETPINPRRCLHILTKILYLLNQGEHFGTTEATEAFFAMTRLFQSNDQTLRRMCYLTIKEMATISEDVIIVTSSLTKDMTGKEDVYRGPAIRALCRITDGTMLQAIERYMKQAIVDKVSSVSSSALVSSLHMMKISYDVVKRWINEAQEAASSDNIMVQYHALGVLYHLRKNDRLAVSKMLNKFTKSGLKSQFAYCMLIRIASRLLKETEDGHESPLFDFIESCLRNKHEMVIYEAASAIIHLPNCTARELAPAVSVLQLFCSSPKPALRYAAVRTLNKVAMKHPSAVTACNLDLENLITDSNRSIATLAITTLLKTGSESSVDRLMKQISSFVSEISDEFKVVVVQAISALCQKYPRKHSVMMTFLSNMLRDDGGFEYKRAIVDCIISIVEENPESKEAGLAHLCEFIEDCEHTVLATKILHLLGKEGPRTPVPSKYIRFIFNRVVLENEAVRAAAVSALAKFGAQNESLLPSILVLLQRCMMDTDDEVRDRATFYLNVLQQRQMALNATYIFNGLTVSVPGMEKALHQYTLEPSEKPFDMKSIPLAMAPVFEQKAEITLVATKPEKLAPSRQDIFQEQLAAIPEFLNIGPLFKSSEPVQLTEAETEYFVRCIKHMFTNHIVFQFDCTNTLNDQLLEKVTVQMEPSDSYEVLSCIPAPSLPYNQPGICYTLVRLPDDDPTAVAGSFSCTMKFTVRDCDPNTGVPDEDGYDDEYVLEDLEVTVSDHIQKVLKPNFAAAWEEVGDTFEKEETFALSSTKTLEEAVNNIITFLGMQPCERSDKVPENKNSHSLYLAGIFRGGYDLLVRSRLALADGVTMQVTVRSKERTPVDVILASVG
Consider B3, for which the binding entry was “binds”.
